Data as given in PubChem BioAssay AID493246 (Drosophila RNAi Screening Center, 2011)

Test: 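Identify essential fly genes by loss of cell viability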 (primary screen)
System: Drosophila Kc and S2R+ cells
Knock-down reagent: long dsRNA against Drosophila genes
Measurement: 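Cell number per well after knock-down, printed as raw plate values; calls were based on per-plate z-scores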
Scale: Kc cell number and S2R+ cell number: higher = more cells remaining
Hit rule: 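Counted as a hit if cell number falls by a z-score of at least 3 within its plate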
In all, the deposit lists about 21,000 reagents; shown is an unselected part of those with a known target gene and a result. In the full data, 429 (2%) are marked active. 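Values are raw and not normalised between plates; calls rest on per-plate z-scores that were not deposited.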 Entries without a mark were called inactive. The numbers tell different reagents against one gene apart. Not given: the amount of reagent, the time to read-out.

For Hesr (GeneID 32800), the entry reads Kc cell number, rep 1 = 1.40e6; Kc cell number, rep 2 = 1.48e6; S2R+ cell number, rep 1 = 1.10e6; S2R+ cell number, rep 2 = 1.16e6. Mitf (GeneID 3885647) #1 showed Kc cell number, rep 1 = 1.47e6; Kc cell number, rep 2 = 1.51e6; S2R+ cell number, rep 1 = 1.07e6; S2R+ cell number, rep 2 = 1.16e6. After knock-down of Mitf (GeneID 3885647) #2, the screen gave Kc cell number, rep 1 = 1.52e6; Kc cell number, rep 2 = 1.56e6; S2R+ cell number, rep 1 = 1.03e6; S2R+ cell number, rep 2 = 1.15e6. With knock-down of TkR99D (GeneID 43551), the screen gave Kc cell number, rep 1 = 1.64e6; Kc cell number, rep 2 = 1.74e6; S2R+ cell number, rep 1 = 1.05e6; S2R+ cell number, rep 2 = 1.20e6.

Records above whose target name starts with M or m (2):
Mitf (GeneID 3885647) #1 | Kc cell number, rep 1 = 1.47e6; Kc cell number, rep 2 = 1.51e6; S2R+ cell number, rep 1 = 1.07e6; S2R+ cell number, rep 2 = 1.16e6
Mitf (GeneID 3885647) #2 | Kc cell number, rep 1 = 1.52e6; Kc cell number, rep 2 = 1.56e6; S2R+ cell number, rep 1 = 1.03e6; S2R+ cell number, rep 2 = 1.15e6

Continued.
Silencing of CG4440 (GeneID 50458) gave: Kc cell number, rep 1 = 1.68e6; Kc cell number, rep 2 = 1.78e6; S2R+ cell number, rep 1 = 1.23e6; S2R+ cell number, rep 2 = 1.52e6. After knock-down of CG6583 (GeneID 34645), the screen gave Kc cell number, rep 1 = 1.51e6; Kc cell number, rep 2 = 1.56e6; S2R+ cell number, rep 1 = 1.20e6; S2R+ cell number, rep 2 = 1.35e6. Against AP-1gamma (GeneID 31842), the entry reads Kc cell number, rep 1 = 1.58e6; Kc cell number, rep 2 = 1.58e6; S2R+ cell number, rep 1 = 9.04e5; S2R+ cell number, rep 2 = 1.03e6. Against CG6661 (GeneID 39556), the entry reads Kc cell number, rep 1 = 1.74e6; Kc cell number, rep 2 = 1.81e6; S2R+ cell number, rep 1 = 1.17e6; S2R+ cell number, rep 2 = 1.30e6. CG34290 (GeneID 5740609) showed Kc cell number, rep 1 = 1.25e6; Kc cell number, rep 2 = 1.43e6; S2R+ cell number, rep 1 = 1.14e6; S2R+ cell number, rep 2 = 8.96e5. For CG42686 (retired record) (GeneID 42674) #1 the deposit lists Kc cell number, rep 1 = 7.17e5 (active); Kc cell number, rep 2 = 8.50e5; S2R+ cell number, rep 1 = 4.46e5; S2R+ cell number, rep 2 = 5.24e5.

CG42686 (retired record) (GeneID 42674) #2 showed Kc cell number, rep 1 = 1.60e6; Kc cell number, rep 2 = 1.54e6; S2R+ cell number, rep 1 = 1.01e6; S2R+ cell number, rep 2 = 1.12e6. Against cnk (GeneID 36952), the entry reads Kc cell number, rep 1 = 1.45e6; Kc cell number, rep 2 = 1.50e6; S2R+ cell number, rep 1 = 1.16e6; S2R+ cell number, rep 2 = 1.30e6. Depletion of Pif1A (GeneID 8674049) #1 came out at: Kc cell number, rep 1 = 1.38e6; Kc cell number, rep 2 = 1.40e6; S2R+ cell number, rep 1 = 1.10e6; S2R+ cell number, rep 2 = 1.30e6. Knock-down of Pif1A (GeneID 8674049) #2 gave: Kc cell number, rep 1 = 1.35e6; Kc cell number, rep 2 = 1.53e6; S2R+ cell number, rep 1 = 1.30e6; S2R+ cell number, rep 2 = 1.41e6.
